In PubChem BioAssay AID248 (DTP/NCI, 2004):
The list is a part of this screen's results and no random one: its compounds were picked by chemical class. Other doses and runs of a compound may be missing. T/C: endpoint of the treated group in % of that of the vehicle group. Where survival is the endpoint, the PubChem record calls one and a half times the control and up active, and a quarter to a half above the control has no call in these data; cut-offs in other NCI protocols can differ. Some entries show no survivor count and are marked so; the dose need not have been tolerated. Schedule codes are those of the source, taken here to give the interval after Q, in days (D) or hours (H), and the number of doses after X. Some entries hold several experiments; their values stand side by side, smallest first.

Tested on: L1210 leukemia ip in BDF1 mice, survival T/C
Assay: NCI In Vivo Anticancer Drug Screen. Data for tumor model L1210 Leukemia (intraperitoneal) in B6D2F1 (BDF1) mice
Conditions: T/C endpoint: mean survival time, higher T/C = longer survival
[1] = dose: 25.0 mg/kg/injection, schedule: Q04DX003 (ip), vehicle: Klucel (hydroxypropylcellulose) (HPC)
[2] = dose: 50.0 mg/kg/injection, schedule: Q04DX003 (ip), vehicle: Klucel (hydroxypropylcellulose) (HPC)
[3] = dose: 100.0 mg/kg/injection, schedule: Q01DX001 (ip), vehicle: carboxymethylcellulose (CMC)
[4] = dose: 177.0 mg/kg/injection, schedule: Q01DX001 (ip), vehicle: carboxymethylcellulose (CMC)
[5] = dose: 200.0 mg/kg/injection, schedule: Q01DX001 (ip), vehicle: carboxymethylcellulose (CMC)
[6] = dose: 266.0 mg/kg/injection, schedule: Q01DX001 (ip), vehicle: carboxymethylcellulose (CMC)
[7] = dose: 400.0 mg/kg/injection, schedule: Q01DX001 (ip), vehicle: carboxymethylcellulose (CMC)

Structure (SMILES): C=CCN(CCCl)CCCl
- T/C (dose: 0.09 mg/kg/injection, schedule: Q01DX009 (ip), vehicle: saline): 104 % of control [survivor count not shown]
- T/C (dose: 0.1 mg/kg/injection, schedule: Q01DX009 (ip), vehicle: saline): 110 % of control [survivor count not shown]
- T/C (dose: 0.13 mg/kg/injection, schedule: Q01DX009 (ip), vehicle: saline): 109 % of control [survivor count not shown]
- T/C (dose: 0.2 mg/kg/injection, schedule: Q01DX009 (ip), vehicle: saline): 113 [survivor count not shown] and 143 % of control [survivor count not shown]
- T/C (dose: 0.3 mg/kg/injection, schedule: Q01DX009 (ip), vehicle: saline): 120 % of control [survivor count not shown]
- T/C (dose: 0.4 mg/kg/injection, schedule: Q01DX001 (ip), vehicle: saline): 119 % of control [survivor count not shown]
- T/C (dose: 0.4 mg/kg/injection, schedule: Q01DX009 (ip), vehicle: saline): 123 % of control [survivor count not shown]
- T/C (dose: 0.5 mg/kg/injection, schedule: Q01DX001 (ip), vehicle: saline): 122 % of control [survivor count not shown]
- T/C (dose: 0.5 mg/kg/injection, schedule: Q01DX009 (ip), vehicle: saline): 135 % of control [survivor count not shown]
- T/C (dose: 0.6 mg/kg/injection, schedule: Q01DX001 (ip), vehicle: saline): 134 % of control [survivor count not shown]
- T/C (dose: 1.0 mg/kg/injection, schedule: Q01DX001 (ip), vehicle: saline): 128 [survivor count not shown] and 132 % of control [survivor count not shown]
- T/C (dose: 1.0 mg/kg/injection, schedule: Q01DX009 (ip), vehicle: saline): 91 % of control [survivor count not shown]
- T/C (dose: 1.5 mg/kg/injection, schedule: Q01DX001 (ip), vehicle: saline): 136 % of control [survivor count not shown]
- T/C (dose: 2.0 mg/kg/injection, schedule: Q01DX001 (ip), vehicle: saline): 131 % of control [survivor count not shown]
- T/C (dose: 2.5 mg/kg/injection, schedule: Q01DX001 (ip), vehicle: saline): 112 % of control [survivor count not shown]
- T/C (dose: 3.0 mg/kg/injection, schedule: Q01DX009 (ip), vehicle: saline): 94 % of control [survivor count not shown]
- T/C (dose: 4.4 mg/kg/injection, schedule: Q01DX009 (ip), vehicle: saline): 88 % of control [survivor count not shown]

Structure (SMILES): CN1CCC(OC(=O)C(O)(c2ccccc2)C2CCCC2)C1 (configuration not stated)
- T/C (dose: 12.5 mg/kg/injection, schedule: Q01DX009 (ip), vehicle: saline): 95 % of control [survivor count not shown]
- T/C (dose: 25.0 mg/kg/injection, schedule: Q01DX009 (ip), vehicle: saline): 102 % of control [survivor count not shown]
- T/C (dose: 25.0 mg/kg/injection, schedule: Q04DX003 (ip), vehicle: saline): 100 % of control [survivor count not shown]
- T/C (dose: 50.0 mg/kg/injection, schedule: Q01DX009 (ip), vehicle: saline): 92 % of control [survivor count not shown]
- T/C (dose: 50.0 mg/kg/injection, schedule: Q04DX003 (ip), vehicle: saline): 92 % of control [survivor count not shown]
- T/C (dose: 100.0 mg/kg/injection, schedule: Q01DX009 (ip), vehicle: saline): 103 % of control [survivor count not shown]
- T/C (dose: 100.0 mg/kg/injection, schedule: Q04DX003 (ip), vehicle: saline): 102 % of control [survivor count not shown]
- T/C (dose: 200.0 mg/kg/injection, schedule: Q01DX009 (ip), vehicle: saline): 95 % of control [survivor count not shown]
- T/C (dose: 200.0 mg/kg/injection, schedule: Q04DX003 (ip), vehicle: saline): 100 % of control [survivor count not shown]

Structure (SMILES): CN1CCCC(CCCOC(=O)C(O)(c2ccccc2)c2ccccc2)C1 (configuration not stated)
- T/C [1]: 100 % of control [survivor count not shown]
- T/C [2]: 100 % of control [survivor count not shown]
- T/C (dose: 75.0 mg/kg/injection, schedule: Q04DX003 (ip), vehicle: Klucel (hydroxypropylcellulose) (HPC)): 100 % of control [survivor count not shown]

Structure (SMILES): CN(C)CC1C2CCC(C2)C1OC(=O)C(O)(c1ccccc1)c1ccccc1 (configuration not stated)
- T/C (dose: 25.0 mg/kg/injection, schedule: Q04DX003 (ip), vehicle: saline with Tween-80): 98 % of control [survivor count not shown]
- T/C (dose: 50.0 mg/kg/injection, schedule: Q04DX003 (ip), vehicle: saline with Tween-80): 96 % of control [survivor count not shown]
- T/C (dose: 100.0 mg/kg/injection, schedule: Q04DX003 (ip), vehicle: saline with Tween-80): 102 % of control [survivor count not shown]

Structure (SMILES): O=C(OC1CCN(CC2CC2)CC1)C(O)(c1ccccc1)c1ccccc1
- T/C (dose: 12.5 mg/kg/injection, schedule: Q04DX003 (ip), vehicle: Klucel (hydroxypropylcellulose) (HPC)): 97 % of control [survivor count not shown]
- T/C [1]: 97 % of control [survivor count not shown]
- T/C [2]: 101 % of control [survivor count not shown]

Structure (SMILES): CCCCCCN(CCCl)CCCl
- T/C (dose: 12.5 mg/kg/injection, schedule: Q01DX001 (ip), vehicle: saline): 116 % of control [survivor count not shown]
- T/C (dose: 25.0 mg/kg/injection, schedule: Q01DX001 (ip), vehicle: saline): 118 % of control [survivor count not shown]

Structure (SMILES): CCOC(=O)CN(CCCl)CCCl
- T/C (dose: 0.2 mg/kg/injection, schedule: Q01DX010 (ip), vehicle: saline): 93 % of control [survivor count not shown]
- T/C (dose: 0.4 mg/kg/injection, schedule: Q01DX010 (ip), vehicle: saline): 100 % of control [survivor count not shown]
- T/C (dose: 0.85 mg/kg/injection, schedule: Q01DX010 (ip), vehicle: saline): 107 % of control [survivor count not shown]

Structure (SMILES): Cc1cc(C)c(O)c(CN(CC(C)Cl)CC(C)Cl)c1 (configuration not stated)
- T/C [3]: 106 % of control [survivor count not shown]
- T/C [4]: 112 [survivor count not shown] and 116 % of control [survivor count not shown]
- T/C [5]: 109 % of control [survivor count not shown]
- T/C [6]: 112 [survivor count not shown] and 118 % of control [survivor count not shown]
- T/C [7]: 107 [survivor count not shown], 118 [survivor count not shown], 135 % of control [survivor count not shown]

Structure (SMILES): Oc1ccc2ccccc2c1CN(CCCl)CCCl
- T/C (dose: 34.0 mg/kg/injection, schedule: Q01DX001 (ip), vehicle: carboxymethylcellulose (CMC)): 125 % of control [survivor count not shown]
- T/C (dose: 44.0 mg/kg/injection, schedule: Q01DX009 (ip), vehicle: carboxymethylcellulose (CMC)): 120 % of control [survivor count not shown]
- T/C (dose: 52.0 mg/kg/injection, schedule: Q01DX001 (ip), vehicle: carboxymethylcellulose (CMC)): 119 % of control [survivor count not shown]
- T/C (dose: 66.0 mg/kg/injection, schedule: Q01DX009 (ip), vehicle: carboxymethylcellulose (CMC)): 108 % of control [survivor count not shown]
- T/C (dose: 78.0 mg/kg/injection, schedule: Q01DX001 (ip), vehicle: carboxymethylcellulose (CMC)): 130 % of control [survivor count not shown]
- T/C [3]: 116 % of control [survivor count not shown]
- T/C (dose: 118.0 mg/kg/injection, schedule: Q01DX001 (ip), vehicle: carboxymethylcellulose (CMC)): 125 [survivor count not shown] and 130 % of control [survivor count not shown]
- T/C [4]: 135 [survivor count not shown] and 160 % of control [survivor count not shown]
- T/C [5]: 117 % of control [survivor count not shown]
- T/C [6]: 132 [survivor count not shown] and 144 % of control [survivor count not shown]
- T/C [7]: 134 [survivor count not shown], 135 [survivor count not shown], 137 % of control [survivor count not shown]
- T/C (dose: 600.0 mg/kg/injection, schedule: Q01DX001 (ip), vehicle: carboxymethylcellulose (CMC)): 141 % of control [survivor count not shown]
